Values joined by “and” are separate entries in the source; they are usually repeats but may differ in a detail not shown here. Equal values may be shown once. Where a name gives a salt, the structure may show the parent alone. ± gives the standard deviation of the averaged measurements. Some of the results follow. This is a noisy data set.

For the experiment, the system named is Salmonella enterica serovar Typhimurium ST313 D23580. Briefly: normalized bacterial growth (OD600 20 h minus 0 h, interquartile-mean normalized) (fraction of plate interquartile mean); higher = more bacterial growth (less inhibition). The settings on record: LPM (pH 5.8, low phosphate, low Mg2+), concentration: 10 µM, temperature: 37 °C.
`CC(N)Cc1c[nH]c2ccc(O)cc12` (stereo not drawn) [alpha-Methyl-5-hydroxytryptamine maleate]: the normalized bacterial growth worked out at 1.07. `CN1C[C@H](CO)C=C2c3cccc4[nH]cc(c34)C[C@H]21` came in with a normalized bacterial growth of 0.801.

The compound `CN1C[C@H](CO)C=C2c3cccc4[nH]cc(c34)C[C@H]21` [Lysergol] had a normalized bacterial growth of 0.813. Take `N[C@H](CCCCCP(=O)(O)O)C(=O)O` [D(-)-2-Amino-7-phosphonoheptanoic acid]: the normalized bacterial growth came to 0.859. `CC(=O)O[C@H]1C[C@H](O[C@H]2[C@@H](O)C[C@H](O[C@H]3[C@@H](O)C[C@H](O[C@H]4CC[C@@]5(C)[C@H](CC[C@@H]6[C@@H]5C[C@@H](O)[C@]5(C)[C@@H](C7=CC(=O)OC7)CC[C@]65O)C4)O[C@@H]3C)O[C@@H]2C)O[C@H](C)[C@H]1O[C@@H]1O[C@H](CO)[C@@H](O)[C@H](O)[C@H]1O` [Lanatoside C] had a normalized bacterial growth of 0.88.

Take `CC(=O)O[C@H]1C[C@H](O[C@H]2[C@@H](O)C[C@H](O[C@H]3[C@@H](O)C[C@H](O[C@H]4CC[C@@]5(C)[C@H](CC[C@@H]6[C@@H]5C[C@@H](O)[C@]5(C)[C@@H](C7=CC(=O)OC7)CC[C@]65O)C4)O[C@@H]3C)O[C@@H]2C)O[C@H](C)[C@H]1O[C@@H]1O[C@H](CO)[C@@H](O)[C@H](O)[C@H]1O`: the normalized bacterial growth is 0.918. As for `Cc1c([C@H](C)[C@@H]2NC[C@@H](C)C[C@H]2O)ccc2c1C[C@H]1[C@H]2CC=C2C[C@@H](O)CC[C@@]21C`, the figure is 1.13; as for `O=C1C=C2C(=CCOC2O)O1` (stereo not drawn), 0.628. `COc1ccc(CCN2CCC(Nc3nc4ccccc4n3Cc3ccc(F)cc3)CC2)cc1`: the normalized bacterial growth is 1.03. The same measure for `COc1cc2c(cc1OC)[C@@]13CCN4CC5=CCO[C@H]6CC(=O)N2[C@H]1[C@H]6[C@H]5C[C@H]43`: 0.94; for `CC(C)(C)NCC(O)c1cc(Cl)c(N)c(Cl)c1` (stereo not drawn) [Clenbuterol hydrochloride]: 1.15.

`N[C@@H](CCl)C(=O)O` [beta-Chloro-L-alanine hydrochloride]: the normalized bacterial growth stood at 0.393. On to `Fc1ccc(C(OCCN2CCN(CCCc3ccccc3)CC2)c2ccc(F)cc2)cc1`, for which the normalized bacterial growth was determined as 0.98. Take `COC(=O)C1=CCCN(C)C1` [Arecoline hydrobromide]: the normalized bacterial growth was found to be 1.06. Take `COC(=O)C1=CCCN(C)C1`: the normalized bacterial growth was determined as 0.992. In the case of `O=C[C@H](Cl)[C@@H](O)[C@H](O)[C@H](O)CO` [2-Chloro-2-deoxy-D-glucose], the normalized bacterial growth came to 0.497. In turn, `NNC(N)=O` [Semicarbazide hydrochloride] gave a normalized bacterial growth of 1.04. As for `O=C(NC(=O)c1c(F)cccc1F)Nc1cc(Cl)c(OC(F)(F)C(F)C(F)(F)F)cc1Cl` (stereo not drawn), the figure is 1.17; as for `COc1cc2c(cc1OC)[C@H](C)NCC2`, 0.97822 ± 0.00057; as for `COc1ccc(Cc2nccc3cc(OC)c(OC)cc23)cc1OC`, 1.26. `COc1ccc(Cc2nccc3cc(OC)c(OC)cc23)cc1OC` [Papaverine hydrochloride] displayed a normalized bacterial growth of 1.2. As to `CCC1(CC)C(=O)C=CNC1=O`, the normalized bacterial growth was 0.987.

Regarding `C[C@@H]1NCCc2cc(O)c(O)cc21` [Salsolinol hydrobromide], the normalized bacterial growth stood at 1.13.

In turn, `C[C@@H]1NCCc2cc(O)c(O)cc21` had a normalized bacterial growth of 0.403. For `CNCCc1c[nH]c2ccc(O)cc12` [N-omega-Methyl-5-hydroxytryptamine oxalate salt], the normalized bacterial growth was 0.998. Turning to `NCCCP(=O)(O)O` [3-Aminopropylphosphonic acid], the normalized bacterial growth came out at 0.748. As for `NNC(=O)c1ccc(O)cc1` [4-Hydroxybenzhydrazide], the normalized bacterial growth was determined as 1.15.

In the case of `NCCc1c[nH]c2ccc(O)cc12` [Serotonin hydrochloride], the normalized bacterial growth stood at 1.01. Take `CCCN(CCC)CCc1ccc(O)c(O)c1` [Dipropyldopamine hydrobromide]: the normalized bacterial growth was determined as 0.944. `COc1ccc(C[C@H]2NC[C@H](O)[C@H]2OC(C)=O)cc1` had a normalized bacterial growth of 1.03 ± 0.15. The compound `CN1[C@@H](C[C@@H](O)c2ccccc2)CCC[C@H]1C[C@H](O)c1ccccc1` [Lobelanidine hydrochloride] registered a normalized bacterial growth of 0.759. With `COc1ccc2c(c1)/C(=C/c1cnc[nH]1)C(=O)N2`, the normalized bacterial growth amounted to 1.2. For the compound `CC1(C)N([O-])[N+](=O)C1(C)Br` (stereo not drawn), the normalized bacterial growth was determined as 1.21.

For `Ic1ccccc1CNC1C2CCN(CC2)C1C(c1ccccc1)c1ccccc1` ["L-703,606 oxalate"], the normalized bacterial growth amounted to 0.688. As for `O=C1c2ccccc2C(=O)c2ccccc21`, the figure is 0.859; as for `Oc1c(Cl)c(Cl)c(Cl)c(Cl)c1Cl`, 0.271. The same measure for `Cc1ccc(O)cc1.Cc1cccc(O)c1.Cc1ccccc1O`: 0.9; for `CC1=CC(=O)C2=C(C)C[C@H](O)[C@@H]3[C@H](OC(=O)[C@H]3C)[C@@H]12`: 1.21; for `CC[C@H]1[C@@H]2C[C@H]3[C@@H]4N(C)c5ccccc5[C@]45C[C@@H]([C@@H]2[C@H]5O)N3[C@@H]1O` [Ajmaline]: 0.975. On to `CC[C@H]1[C@@H]2C[C@H]3[C@@H]4N(C)c5ccccc5[C@]45C[C@@H]([C@@H]2[C@H]5O)N3[C@@H]1O`, for which the normalized bacterial growth was 0.9028 ± 0.0041. Turning to `CS(=N)(=O)CC[C@H](N)C(=O)O` (stereo partly drawn) [L-Methionine sulfoximine], the normalized bacterial growth amounted to 1.19. As for `C[C@@H]1CC[C@H]2[C@@H](C)C(=O)O[C@@H]3O[C@@]4(C)CC[C@@H]1[C@]32OO4`, the figure is 1.03. `CC[C@H]1CN2CCc3cc(OC)c(OC)cc3[C@@H]2C[C@@H]1C[C@H]1NCCc2cc(OC)c(OC)cc21` returned a normalized bacterial growth of 0.89 ± 0.15.

As for `CC[C@H]1CN2CCc3cc(OC)c(OC)cc3[C@@H]2C[C@@H]1C[C@H]1NCCc2cc(OC)c(OC)cc21` [Emetine dihydrochloride hydrate], the normalized bacterial growth is 1.07.

Compound `CC(C)(C)C(=O)C(Oc1ccc(Cl)cc1)n1cncn1` (stereo not drawn) returned a normalized bacterial growth of 1.21.

`COc1ccc(C(=O)O[C@H]2CC[C@@]3(C)[C@@H]4CC[C@H]5[C@]6(O)C[C@H](O)[C@@]7(O)[C@@H](CN8C[C@@H](C)CC[C@H]8[C@@]7(C)O)[C@]6(O)C[C@@]53O[C@]24O)cc1OC` had a normalized bacterial growth of 0.984. `COc1cc([C@@H]2c3cc4c(cc3[C@H](O)[C@H]3COC(=O)[C@H]23)OCO4)cc(OC)c1OC`: the normalized bacterial growth is 0.752 and 1.01.

For the compound `CC(C)C[C@H](CN)CC(=O)O`, the normalized bacterial growth is 0.879. `CN(C)C(=S)SSC(=S)N(C)C`: the normalized bacterial growth was determined as 0.791. The compound `O=C1NC(=O)C(=O)C(=O)N1` displayed a normalized bacterial growth of 1.02. With `CC(C)(C)NCC(O)c1ccccc1Cl` (stereo not drawn) [Tulobuterol hydrochloride], the normalized bacterial growth amounted to 1.07. `CC1(C(=O)O)C2CCC(O2)C1(C)C(=O)O` (stereo not drawn) [Cantharidic Acid] gave a normalized bacterial growth of 0.887.

`C[C@@]1(CO)[C@H](O)CC[C@@]2(C)[C@H]1CC[C@H]1C[C@@H]3C[C@@]12CC[C@]3(O)CO` displayed a normalized bacterial growth of 1.04. The same measure for `CCN1C[C@]2(COC)CC[C@H](O)[C@@]34C5C[C@@H]6[C@@H](OC)C[C@](O)(C(CC23)C14)C5[C@H]6OC(C)=O` (stereo partly drawn): 1.03; for `COc1cc2c3cc1Oc1c(OC)c(OC)cc4c1[C@H](Cc1ccc(cc1)Oc1cc(ccc1O)C[C@H]3N(C)CC2)N(C)CC4`: 1.07. On to `Cc1nnc2ccc(-c3cccc(C(F)(F)F)c3)nn12`, for which the normalized bacterial growth was 0.939.

On to `COc1cc2c(cc1-c1cc3cc4ccoc4cc3oc1=O)OCO2`, for which the normalized bacterial growth was found to be 1.14. Compound `CCCN1CCc2cc(O)cc3c2[C@H]1Cc1ccc(O)c(O)c1-3` ["R(-)-2,10,11-Trihydroxy-N-propylnoraporphine hydrobromide"] came in with a normalized bacterial growth of 0.859.

`C[N+]12CCC(CC1)C(OC(=O)C(O)(c1ccccc1)c1ccccc1)C2` (stereo not drawn) gave a normalized bacterial growth of 1.15. In turn, `O=C(O)CCC1NCC2CC1CN1CCCCC21` (stereo not drawn) gave a normalized bacterial growth of 1.03. `CCCN(CCC)[C@@H]1CCc2cccc(O)c2C1` [R-(+)-8-Hydroxy-DPAT hydrobromide] had a normalized bacterial growth of 0.917.

Take `C#CCN[C@H](C)Cc1ccccc1` [R-(-)-Desmethyldeprenyl hydrochloride]: the normalized bacterial growth turned out to be 1.25. The compound `O=C1CCC[C@@H]2[C@H]3C[C@@H](CN12)[C@@H]1CCCCN1C3.[O-][Cl+3]([O-])([O-])O` returned a normalized bacterial growth of 1.3. With `C[C@@]12N[C@@H](Cc3ccccc31)c1ccccc12` [(-)-MK 801 hydrogen maleate], the normalized bacterial growth is 0.883.

The compound `C[C@@]12N[C@@H](Cc3ccccc31)c1ccccc12` [(-)-MK-801 hydrogen maleate] had a normalized bacterial growth of 1.04. As for `CC(CC(C(N)=O)(c1ccccc1)c1ccccc1)N(C)C` (stereo not drawn), the figure is 0.686; as for `COC(=O)C(c1ccccc1)C1CCCCN1` (stereo not drawn), 1.13; as for `COC[C@]12CN(C=O)[C@@H]3[C@@H]4[C@H](OC)[C@H]1[C@@]3([C@@H](OC)C[C@H]2O)[C@@H]1C[C@@]2(O)[C@H](OC(=O)c3ccccc3)[C@@H]1[C@]4(OC(C)=O)[C@@H](O)[C@@H]2OC`, 1.3. `CC(C)=CCCC1(C)C=Cc2c(O)c3c(c(CC=C(C)C)c2O1)OC12C(=CC4CC1C(C)(C)OC2(C/C=C(/C)C(=O)O)C4O)C3=O` (stereo not drawn) had a normalized bacterial growth of 1.11. `C[C@H]1C(=O)O[C@@H]2CCN3CC=C(COC(=O)[C@](C)(O)[C@]1(C)O)[C@H]23` had a normalized bacterial growth of 0.932.

`CO[C@]12C[C@@H](COC(=O)c3cncc(Br)c3)CN(C)[C@@H]1Cc1cn(C)c3cccc2c13`: the normalized bacterial growth was 0.737. With `O=C(O)COc1cc(Cl)c(Cl)cc1Cl`, the normalized bacterial growth was 1.22. For the compound `CC(=O)OCC1=C(C(=O)O)N2C(=O)[C@@H](N)[C@H]2SC1` ["Cephalosporanic acid, 7-amino"], the normalized bacterial growth was found to be 0.833.

`CC(=O)OCC1=C(C(=O)O)N2C(=O)[C@@H](N)[C@H]2SC1` registered a normalized bacterial growth of 0.943.

On to `C=C(C)[C@@H]1[C@H]2OC(=O)[C@@H]1[C@]1(O)C[C@H]3OC34C(=O)O[C@H]2[C@@]41C.CC(C)(O)[C@@H]1[C@H]2OC(=O)[C@@H]1[C@]1(O)C[C@H]3OC34C(=O)O[C@H]2[C@@]41C` (stereo partly drawn) [Picrotoxin], for which the normalized bacterial growth amounted to 1.01.

In the case of `COC1=C[C@@H]2C3=C([C@@H]2C1=O)[C@@H](NC(C)=O)CCc1cc(OC)c(OC)c(OC)c13` [Lumicolchicine gamma], the normalized bacterial growth was determined as 1.02. On to `CC1=C[C@H]2[C@@]3(O)[C@H](C)[C@@H](O)[C@]4(O)[C@H]([C@@H]3C=C(CO)C[C@]2(O)C1=O)C4(C)C`, for which the normalized bacterial growth was found to be 1.14.

Turning to `CC(C)NP(=O)(NC(C)C)OP(=O)(NC(C)C)NC(C)C` [Tetraisopropyl pyrophosphoramide], the normalized bacterial growth was 0.838.

The values are drawn from the supplement of paper PMC10398353.
